Source: patent US12371402B2, “Mitochondrial activity inhibitors targeting tumoral metabolism” (CENTRE LEON BERARD, priority 2018, dated 2025)
Some entries share one result that the patent states for a list of compounds.

system: RL follicular lymphoma; test: Live cell number by flow cytometry, RL follicular lymphoma; type: cell-based, human; conditions: 25 μM, 24 hours and 48 hours

Q: How did the “number of living cells” value turn out when N=C(Nc1ccc2ccccc2c1)SCCCCCCCCSC(=N)Nc1ccc2ccccc2c1 [compound 3] was run?
A: decrease in the number of living cells after 24 hours which is amplified after 48 hours

Q: How did the “number of living cells” value turn out when N=C(Nc1ccc2ccccc2c1)SCCCCCCSC(=N)Nc1ccc2ccccc2c1 [compound 4] was run?
A: decrease in the number of living cells after 24 hours which is amplified after 48 hours

Q: N=C(Nc1ccc2ccccc2c1)SCCCCSC(=N)Nc1ccc2ccccc2c1 [compound 2] was tested. Which “number of living cells” value did it give?
A: decrease in the number of living cells after 24 hours which is amplified after 48 hours
